{
  "source": "the supplement of paper PMC10077471",
  "note": "In all, about 1,900 compounds were measured (“excess over highest single agent (ExcessHSA) synergy score, 6x6 matrix”: median about -83, lowest 2% from about -370 on). This is one part of the list.",
  "data": [
    {"system": "NCI-H446", "assay": "excess over highest single agent (ExcessHSA) synergy score, 6x6 matrix; higher = less synergy (more negative = stronger synergy)", "settings": "72 h; CellTiter-Glo viability", "values": [
      {"smiles": "Cc1c(CN2CCN(S(C)(=O)=O)CC2)sc2c(N3CCOCC3)nc(-c3cnc(N)nc3)nc12", "note": "+ Cc1sc2c(c1C)C(c1ccc(Cl)cc1)=N[C@@H](CC(=O)OC(C)(C)C)c1nnc(C)n1-2 [NCGC00250412-19]", "excess over highest single agent": -334},
      {"smiles": "COc1cc2ncnc(Nc3ccc(F)c(Cl)c3)c2cc1NC(=O)/C=C/CN1CCCCC1", "note": "+ Cc1sc2c(c1C)C(c1ccc(Cl)cc1)=N[C@@H](CC(=O)OC(C)(C)C)c1nnc(C)n1-2 [NCGC00250412-19]", "excess over highest single agent": -240},
      {"smiles": "Nc1nccc(-c2ccc3noc(-c4ccc(Cl)cc4)c3c2)n1", "note": "+ Cc1sc2c(c1C)C(c1ccc(Cl)cc1)=N[C@@H](CC(=O)OC(C)(C)C)c1nnc(C)n1-2 [NCGC00250412-19]", "excess over highest single agent": 114},
      {"smiles": "CCCc1nc2c(C)cc(-c3nc4ccccc4n3C)cc2n1Cc1ccc(-c2ccccc2C(=O)O)cc1", "note": "+ Cc1sc2c(c1C)C(c1ccc(Cl)cc1)=N[C@@H](CC(=O)OC(C)(C)C)c1nnc(C)n1-2 [NCGC00250412-19]", "excess over highest single agent": -202},
      {"smiles": "OCCC#Cc1nc(-c2ccc(F)cc2)c(-c2ccncc2)n1CCCc1ccccc1", "note": "+ Cc1sc2c(c1C)C(c1ccc(Cl)cc1)=N[C@@H](CC(=O)OC(C)(C)C)c1nnc(C)n1-2 [NCGC00250412-19]", "excess over highest single agent": -12.7},
      {"smiles": "COCCCOc1cc(C[C@@H](C[C@H](N)[C@@H](O)C[C@H](C(=O)NCC(C)(C)C(N)=O)C(C)C)C(C)C)ccc1OC", "note": "+ Cc1sc2c(c1C)C(c1ccc(Cl)cc1)=N[C@@H](CC(=O)OC(C)(C)C)c1nnc(C)n1-2 [NCGC00250412-19]", "excess over highest single agent": -280},
      {"smiles": "Cc1ccc(C(=O)N(CCCN)[C@@H](c2nc3cc(Cl)ccc3c(=O)n2Cc2ccccc2)C(C)C)cc1", "note": "+ Cc1sc2c(c1C)C(c1ccc(Cl)cc1)=N[C@@H](CC(=O)OC(C)(C)C)c1nnc(C)n1-2 [NCGC00250412-19]", "excess over highest single agent": -135},
      {"smiles": "[Cl][Pt+2][Cl].[NH2-].[NH2-]", "note": "+ Cc1sc2c(c1C)C(c1ccc(Cl)cc1)=N[C@@H](CC(=O)OC(C)(C)C)c1nnc(C)n1-2 [NCGC00250412-19]", "excess over highest single agent": 5.09},
      {"smiles": "CC1=CC(=O)c2ccccc2C1=O", "note": "+ Cc1sc2c(c1C)C(c1ccc(Cl)cc1)=N[C@@H](CC(=O)OC(C)(C)C)c1nnc(C)n1-2 [NCGC00250412-19]", "excess over highest single agent": 121},
      {"smiles": "C[C@@H](NCc1cc2ccccc2[nH]1)c1cccc2ccccc12", "note": "+ Cc1sc2c(c1C)C(c1ccc(Cl)cc1)=N[C@@H](CC(=O)OC(C)(C)C)c1nnc(C)n1-2 [NCGC00250412-19]", "excess over highest single agent": -17.7},
      {"smiles": "CC(C)Oc1cc(Nc2nc(N[C@@H](C)c3ccc(F)cn3)ncc2Cl)n[nH]1", "note": "+ Cc1sc2c(c1C)C(c1ccc(Cl)cc1)=N[C@@H](CC(=O)OC(C)(C)C)c1nnc(C)n1-2 [NCGC00250412-19]", "excess over highest single agent": -396},
      {"smiles": "Cc1ccc2nc(NCCN)c3ncc(C)n3c2c1", "note": "+ Cc1sc2c(c1C)C(c1ccc(Cl)cc1)=N[C@@H](CC(=O)OC(C)(C)C)c1nnc(C)n1-2 [NCGC00250412-19]", "excess over highest single agent": -177},
      {"smiles": "Cc1c(NC(=O)OC[C@@H]2COCCN2)cn2ncnc(Nc3ccc4c(cnn4Cc4cccc(F)c4)c3)c12", "note": "+ Cc1sc2c(c1C)C(c1ccc(Cl)cc1)=N[C@@H](CC(=O)OC(C)(C)C)c1nnc(C)n1-2 [NCGC00250412-19]", "excess over highest single agent": -141},
      {"smiles": "CN1C(=O)C[C@@H](C(=O)N[C@@H](Cc2c[nH]cn2)C(=O)N2CCC[C@H]2C(N)=O)NC1=O", "note": "+ Cc1sc2c(c1C)C(c1ccc(Cl)cc1)=N[C@@H](CC(=O)OC(C)(C)C)c1nnc(C)n1-2 [NCGC00250412-19]", "excess over highest single agent": 29.5},
      {"smiles": "O=C(O)c1nn(Cc2ccc(Cl)cc2Cl)c2ccccc12", "note": "+ Cc1sc2c(c1C)C(c1ccc(Cl)cc1)=N[C@@H](CC(=O)OC(C)(C)C)c1nnc(C)n1-2 [NCGC00250412-19]", "excess over highest single agent": -191},
      {"smiles": "CC(C[N+](C)(C)C)OC(N)=O", "note": "(stereo not drawn) + Cc1sc2c(c1C)C(c1ccc(Cl)cc1)=N[C@@H](CC(=O)OC(C)(C)C)c1nnc(C)n1-2 [NCGC00250412-19]", "excess over highest single agent": 34.8},
      {"smiles": "CN(C)CCN(Cc1ccc(Cl)cc1)c1ccccn1", "note": "+ Cc1sc2c(c1C)C(c1ccc(Cl)cc1)=N[C@@H](CC(=O)OC(C)(C)C)c1nnc(C)n1-2 [NCGC00250412-19]", "excess over highest single agent": -131},
      {"smiles": "Cc1cn([C@H]2C[C@H](N=[N+]=[N-])[C@@H](CO)O2)c(=O)[nH]c1=O", "note": "+ Cc1sc2c(c1C)C(c1ccc(Cl)cc1)=N[C@@H](CC(=O)OC(C)(C)C)c1nnc(C)n1-2 [NCGC00250412-19]", "excess over highest single agent": -104},
      {"smiles": "COc1ccc([C@@H]2Sc3ccccc3N(CCN(C)C)C(=O)[C@@H]2OC(C)=O)cc1", "note": "+ Cc1sc2c(c1C)C(c1ccc(Cl)cc1)=N[C@@H](CC(=O)OC(C)(C)C)c1nnc(C)n1-2 [NCGC00250412-19]", "excess over highest single agent": -36.1},
      {"smiles": "Cn1c(=O)c(-c2c(Cl)cccc2Cl)cc2cnc(Nc3cccc(C(=O)O)c3)nc21", "note": "+ Cc1sc2c(c1C)C(c1ccc(Cl)cc1)=N[C@@H](CC(=O)OC(C)(C)C)c1nnc(C)n1-2 [NCGC00250412-19]", "excess over highest single agent": -131},
      {"smiles": "Cc1ccc(-c2ncn(-c3ccc(Nc4nccc(-c5cccc(N6CCOCC6)c5)n4)cc3)n2)cn1", "note": "+ Cc1sc2c(c1C)C(c1ccc(Cl)cc1)=N[C@@H](CC(=O)OC(C)(C)C)c1nnc(C)n1-2 [NCGC00250412-19]", "excess over highest single agent": -78.7},
      {"smiles": "CCNC(=O)c1noc(-c2cc(C(C)C)c(O)cc2O)c1-c1ccc(CN2CCOCC2)cc1", "note": "+ Cc1sc2c(c1C)C(c1ccc(Cl)cc1)=N[C@@H](CC(=O)OC(C)(C)C)c1nnc(C)n1-2 [NCGC00250412-19]", "excess over highest single agent": -382},
      {"smiles": "COc1cccc(N(C)C(=S)Oc2ccc3c(c2)CCCC3)n1", "note": "+ Cc1sc2c(c1C)C(c1ccc(Cl)cc1)=N[C@@H](CC(=O)OC(C)(C)C)c1nnc(C)n1-2 [NCGC00250412-19]", "excess over highest single agent": -36},
      {"smiles": "CNCc1ccc(-c2[nH]c3cc(F)cc4c3c2CCNC4=O)cc1", "note": "+ Cc1sc2c(c1C)C(c1ccc(Cl)cc1)=N[C@@H](CC(=O)OC(C)(C)C)c1nnc(C)n1-2 [NCGC00250412-19]", "excess over highest single agent": -53.1},
      {"smiles": "CC(C)(O)CCc1ccc(OCc2cc(-c3cccc(OC(F)F)c3)c3ncccc3c2)cc1", "note": "+ Cc1sc2c(c1C)C(c1ccc(Cl)cc1)=N[C@@H](CC(=O)OC(C)(C)C)c1nnc(C)n1-2 [NCGC00250412-19]", "excess over highest single agent": 48.5},
      {"smiles": "C[C@@H]1C[C@@H]([C@H](O)CC2CC(=O)NC(=O)C2)C(=O)[C@@H](C)C1", "note": "+ Cc1sc2c(c1C)C(c1ccc(Cl)cc1)=N[C@@H](CC(=O)OC(C)(C)C)c1nnc(C)n1-2 [NCGC00250412-19]", "excess over highest single agent": -14.5},
      {"smiles": "Cc1cnc(-c2cnc(NCCNc3ccc(C#N)cn3)nc2-c2ccc(Cl)cc2Cl)[nH]1", "note": "+ Cc1sc2c(c1C)C(c1ccc(Cl)cc1)=N[C@@H](CC(=O)OC(C)(C)C)c1nnc(C)n1-2 [NCGC00250412-19]", "excess over highest single agent": 58.7},
      {"smiles": "CCOC(=O)Nc1ccc(NCc2ccc(F)cc2)cc1N", "note": "+ Cc1sc2c(c1C)C(c1ccc(Cl)cc1)=N[C@@H](CC(=O)OC(C)(C)C)c1nnc(C)n1-2 [NCGC00250412-19]", "excess over highest single agent": 0.0827},
      {"smiles": "Cc1ccc(C(N)=O)cc1Nc1nccc(-c2cn(C(C)C)c3cnccc23)n1", "note": "+ Cc1sc2c(c1C)C(c1ccc(Cl)cc1)=N[C@@H](CC(=O)OC(C)(C)C)c1nnc(C)n1-2 [NCGC00250412-19]", "excess over highest single agent": 226},
      {"smiles": "O=C(O)c1ccc(-n2nc(-c3ccccc3O)nc2-c2ccccc2O)cc1", "note": "+ Cc1sc2c(c1C)C(c1ccc(Cl)cc1)=N[C@@H](CC(=O)OC(C)(C)C)c1nnc(C)n1-2 [NCGC00250412-19]", "excess over highest single agent": -85.1},
      {"smiles": "COc1c(C)c2c(c(O)c1C/C=C(\\C)CCC(=O)OCCN1CCOCC1)C(=O)OC2", "note": "+ Cc1sc2c(c1C)C(c1ccc(Cl)cc1)=N[C@@H](CC(=O)OC(C)(C)C)c1nnc(C)n1-2 [NCGC00250412-19]", "excess over highest single agent": -105},
      {"smiles": "CN1C(C(=O)Nc2ccccn2)=C(O)c2ccccc2S1(=O)=O", "note": "+ Cc1sc2c(c1C)C(c1ccc(Cl)cc1)=N[C@@H](CC(=O)OC(C)(C)C)c1nnc(C)n1-2 [NCGC00250412-19]", "excess over highest single agent": -44.8},
      {"smiles": "CC1(C)[C@@H](O)CC[C@]2(C)[C@H]3C(=O)C=C4[C@@H]5C[C@@](C)(C(=O)O)CC[C@]5(C)CC[C@@]4(C)[C@]3(C)CC[C@@H]12", "note": "+ Cc1sc2c(c1C)C(c1ccc(Cl)cc1)=N[C@@H](CC(=O)OC(C)(C)C)c1nnc(C)n1-2 [NCGC00250412-19]", "excess over highest single agent": -100},
      {"smiles": "CS(=O)(=O)Oc1ccc2c(NC(N)=O)c(C(=O)c3ccc(Cl)cc3Cl)oc2c1", "note": "+ Cc1sc2c(c1C)C(c1ccc(Cl)cc1)=N[C@@H](CC(=O)OC(C)(C)C)c1nnc(C)n1-2 [NCGC00250412-19]", "excess over highest single agent": 36.3},
      {"smiles": "CC1(C)CC(=O)c2c(C(F)(F)F)nn(-c3ccc(C(N)=O)c(N[C@H]4CC[C@H](OC(=O)CN)CC4)c3)c2C1", "note": "+ Cc1sc2c(c1C)C(c1ccc(Cl)cc1)=N[C@@H](CC(=O)OC(C)(C)C)c1nnc(C)n1-2 [NCGC00250412-19]", "excess over highest single agent": -482},
      {"smiles": "CCN(CC)CCNC(=O)c1ccc2nc(-c3ccccc3)c(-c3ccc(CN4CCC(n5c(=O)[nH]c6ccccc65)CC4)cc3)nc2c1", "note": "+ Cc1sc2c(c1C)C(c1ccc(Cl)cc1)=N[C@@H](CC(=O)OC(C)(C)C)c1nnc(C)n1-2 [NCGC00250412-19]", "excess over highest single agent": 239},
      {"smiles": "Cc1ccc(C)c(OCCCC(C)(C)C(=O)O)c1", "note": "+ Cc1sc2c(c1C)C(c1ccc(Cl)cc1)=N[C@@H](CC(=O)OC(C)(C)C)c1nnc(C)n1-2 [NCGC00250412-19]", "excess over highest single agent": 103},
      {"smiles": "O=C(O)C[C@H](O)C[C@H](O)/C=C/c1c(C2CC2)nc2ccccc2c1-c1ccc(F)cc1", "note": "+ Cc1sc2c(c1C)C(c1ccc(Cl)cc1)=N[C@@H](CC(=O)OC(C)(C)C)c1nnc(C)n1-2 [NCGC00250412-19]", "excess over highest single agent": -165}
    ]}
  ]
}
